In PubChem BioAssay AID624297 (National Center for Advancing Translational Sciences (NCATS), 2012):
Among all 340,000 compounds or so, about 6,200 (1.8%) were called active. Inconclusive means that the source gave no clear call. Such entries were picked first, then a sample of the others. The call rests on the fitted dose curve; in most records, active means well fitted activation curve with a large enough effect; inconclusive means small, poorly fitted or top-dose-only effect; inactive means no such curve, though single readings can be large or run the other way. Potencies of inconclusive entries are doubtful fits and often do not repeat.

Assay: A quantitative high throughput screen for small molecules that induce DNA re-replication in SW480 colon adenocarcinoma cells. Further: nearly all actives have a fitted effect of over 55% in size. On re-replication activation: % of control where 0% means no effect.
Details: Hoechst DNA content imaging, 48 h; re-replication activation: at 46.1 µM (top of the series) unless noted
Procedure, shortened: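 Hoechst fluorescence of nuclei (405 nm excitation, 500-530 nm emission) measured by plate-scanning imager after 48 hr compound exposure at 37 C; re-replication scored as increased number of nuclei with elevated intensity.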
Potency means the concentration at half of the fitted maximal effect.

SMILES	Potency	re-replication activation
Cc1c(C)n(C)c2ccc(C(=O)NCCCN3CCN(c4ccc(F)cc4)CC3)cc12	inconclusive: 18.4 µM [activator, single point]	
CC(=O)C1=NN(c2ccccc2)C(c2cccs2)N1c1ccc(N(C)C)cc1 (configuration not stated)	inconclusive: 29.1 µM [activator, single point]	
CCOC(=O)NCc1ccc(S(=O)(=O)Nc2ccccc2C)cc1		inactive: 1.46%
Cc1ccc(C)n1-n1cnc2sc3c(c2c1=O)CCC3	inconclusive: 0.58 µM [activator, full curve, poor fit]	
CC(Oc1cccc(Cl)c1)C(=O)Nc1cc(Cl)ccc1N1CCOCC1 (configuration not stated)	active: 9.2 µM	
COC(=O)c1c(NC(=O)CN2CCCc3ccccc32)sc(C)c1C	inconclusive: 20.6 µM [activator, single point]	
O=C1c2ccccc2CN1CCNC(=S)NC1CCCCC1		inactive: 0.647%
COc1ccc(CN2C3CCCC2CC(NC(=O)Nc2cccc(C)c2)C3)cc1 (configuration not stated)	inconclusive: 18.4 µM [activator, single point]	
CCOC(=O)COc1ccccc1C1Nc2ccccc2C(=O)N1c1cccc(Cl)c1 (configuration not stated)	inconclusive: 2.91 µM [activator, full curve, poor fit]	
CC1(C)CC(=O)C(CO)=C(c2cccc3ccccc23)C1=O		inactive: -1.8%
CC1CCC(NC(=O)CCNC(=O)c2ccc(Br)cc2)CC1 (configuration not stated)	inconclusive: 32.6 µM [activator, partial curve, poor fit]	
COc1ccc(-c2n[nH]c(C)c2-c2ccc(OC)c(OC)c2)c(O)c1	inconclusive: 20.6 µM [activator, single point]	
S=c1[nH]nc(-c2cc(-c3ccccc3)n[nH]2)n1/N=C/c1c(Cl)cccc1Cl	inconclusive: 6.51 µM [activator, partial curve, poor fit]	
CCCCN1C(=O)/C(=C/C=C2/CC(C)(C)CN2C)SC1=S		inactive: -3.02%
Cc1sc(NC(=O)c2ccccc2)c(C(c2ccccn2)N2CCN(CCO)CC2)c1C (configuration not stated)		inactive: -7.32%
COc1ccc(NC(=O)c2ccc(S(=O)(=O)N3CCCCC3)cc2)cc1OC	inconclusive: 29.1 µM [activator, single point]	
Cc1ccc(S(=O)(=O)N2[C@@H](c3ccc(C(C)(C)C)cc3)C(C(=O)O)=CC[C@H]2c2cccc(Cl)c2)cc1	inconclusive: 0.92 µM [activator, single point]	
Cc1c(C(=O)OC2CCCC2)[nH]c2c1C(=O)CC(c1ccco1)C2 (configuration not stated)	inconclusive: 0.58 µM [activator, partial curve, poor fit]	
COc1ccccc1NC(=S)NCc1ccccn1	inconclusive: 11.6 µM [activator, partial curve, poor fit]	
C#CCOCCOCCOCCNc1nc(N2CCN(C(=O)Cn3cc(CCO)nn3)CC2)nc(N2CCN(C(=O)[C@H](Cc3ccc(O)cc3)n3cc(CCO)nn3)CC2)n1		inactive: -4.55%
Cc1ccc(S(=O)(=O)N2CCC(C(=O)Nc3ccccc3N3CCCC3)CC2)c(C)c1	inconclusive: 25.9 µM [activator, single point]	
O=C(NC(c1ccc(Cl)cc1)c1c(O)ccc2ccccc12)c1ccccc1 (configuration not stated)	inconclusive: 29.1 µM [activator, single point]	
Cc1ccc(C(=O)CSC2=C(C#N)C(c3ccco3)C3=C(CCCC3=O)N2)cc1 (configuration not stated)	active: 5.8 µM	

SMILES	Potency	re-replication activation
CCN(C(=O)COC(=O)CNC(=O)c1ccc(C)c(C)c1)C1CCS(=O)(=O)C1 (configuration not stated)		inactive: -11.8%
COc1ccccc1C(=O)Nc1ccc(S(=O)(=O)Nc2cnc3ccccc3n2)cc1	inconclusive: 14.6 µM [activator, single point]	
CCOC(=O)c1ccccc1NC(=O)CSc1ccc(-c2ccccn2)nn1	inconclusive: 23.1 µM [activator, partial curve, poor fit]	
Cn1c(=O)c2c(nc(NCc3ccc4c(c3)OCO4)n2Cc2ccccc2)n(C)c1=O	inconclusive: 20.6 µM [activator, single point]	
C=CCOc1ccc(C(=O)Nc2ccccc2C(=O)NCc2cccnc2)cc1	inconclusive: 18.4 µM [activator, single point]	
COc1cc(/C=N/NC(=O)CN(Cc2ccccc2)S(=O)(=O)c2ccc3c(c2)OCCO3)ccc1O	inconclusive: 2.06 µM [activator, partial curve, poor fit]	
CCCCNC(=O)Cn1c(=O)oc2cc(S(=O)(=O)N3CC(C)CC(C)C3)ccc21 (configuration not stated)		inactive: 9.26%
Oc1ccccc1CN1CCC(C(O)(c2ccccc2)c2ccccc2)CC1	inconclusive: 29.1 µM [activator, single point]	
COc1ccc(-c2ccc(SCC(=O)NC3CCCCC3)nn2)cc1	inconclusive: 1.84 µM [activator, single point]	
COc1ccc(/C=N/NC(=O)c2[nH]c3ccc(C)cc3c2-c2ccccc2)c(C(=O)O)c1OC	inconclusive: 18.4 µM [activator, single point]	
Cc1ccc(N(CCCCN2C(=O)c3ccccc3C2=O)C(=O)c2cccs2)cc1	inconclusive: 28.2 µM [activator, single point]	
Cc1sc(NC(=O)c2ccco2)c(C(c2cccnc2)N2CCCC2)c1C (configuration not stated)	inconclusive: 18.4 µM [activator, single point]	
CCN(CC)CCN(Cc1cc2ccc(C)cc2[nH]c1=O)C(=O)Nc1ccc(Cl)cc1		inactive: -0.267%
CC(C(=O)O)c1ccc2c(c1)Cc1cccnc1O2 (configuration not stated)		inactive: -2.54%
COc1ccc2[nH]cc(C(=O)CCl)c2c1	inconclusive: 13 µM [activator, partial curve, poor fit]	
Cc1cc(NC(=O)CSc2nc(C(C)(C)C)nc3ccccc23)no1	inconclusive: 7.31 µM [activator, partial curve]	
CCN(CC)C(=S)SCC(=O)Nc1ccc(S(N)(=O)=O)cc1	inconclusive: 0.651 µM [activator, full curve, poor fit]	
CC12CCC(=O)N1C(C(=O)NCCN1C(=O)S/C(=C\c3ccccc3F)C1=O)CS2 (configuration not stated)	inconclusive: 0.92 µM [activator, full curve, poor fit]	
COc1ccc(C(O)(CCN2CCOCC2)c2ccccc2)cc1 (configuration not stated)		inactive: 24%
O=C(/C=C/c1cn(CC(O)CN2CCCCC2)c2ccccc12)c1cccs1 (configuration not stated)	active: 20.6 µM	
CC1Cc2cc(S(=O)(=O)NCc3ccccc3)ccc2N1C(=O)C1CC1 (configuration not stated)		inactive: -6.52%
CC(=O)Oc1c(/C=C(\C#N)C(N)=O)[nH]c2ccccc12	inconclusive: 9.2 µM [activator, partial curve, poor fit]	
COCCN1CCN(c2c(C)c(C)nc3cc(-c4cccc(OC)c4)nn23)CC1	inconclusive: 23.1 µM [activator, single point]	

Already shown: an excerpt of the list.
SMILES	Potency	re-replication activation
CCCCNC(=O)Cn1c(=O)oc2cc(S(=O)(=O)N3CC(C)CC(C)C3)ccc21 (configuration not stated)		inactive: 9.26%
Oc1ccccc1CN1CCC(C(O)(c2ccccc2)c2ccccc2)CC1	inconclusive: 29.1 µM [activator, single point]	
COc1ccc(-c2ccc(SCC(=O)NC3CCCCC3)nn2)cc1	inconclusive: 1.84 µM [activator, single point]	

Next entries follow:

SMILES	Potency	re-replication activation
O=C(CCN1C(=O)C2C3C=CC(C3)C2C1=O)N1CCN(c2ccccn2)CC1 (configuration not stated)		inactive: 6.99%
COc1ccccc1NS(=O)(=O)c1cccc(C(=O)N/N=C/c2c(CO)cnc(C)c2O)c1	inconclusive: 29.1 µM [activator, single point]	
COc1cccc(C(=O)/C=C2\Sc3ccccc3N2C)c1	inconclusive: 18.4 µM [activator, partial curve, poor fit]	
O=C(N/N=C/c1ccco1)c1ccccc1OCc1ccc(Br)cc1	inconclusive: 18.4 µM [activator, single point]	
O=C(OCCOCn1cc(Br)c(=O)[nH]c1=O)c1ccccc1	inconclusive: 4.11 µM [activator, full curve, poor fit]	
O=C(OCc1cc(=O)c(OC(=O)c2ccccc2)co1)c1ccccc1		inactive: 0.095%
CC1(C)Cc2c(C#N)c(SCc3nc4ccccc4[nH]3)nc(N3CCOCC3)c2CO1	active: 12.6 µM	
COc1ccccc1CN1CCCC(C(=O)N2CCCCC2)C1 (configuration not stated)	inconclusive: 1.84 µM [activator, full curve, poor fit]	
COc1ccc(-c2ccc(C#N)c(SCC(=O)Nc3sc4c(c3C#N)CCC4)n2)cc1OC	active: 2.06 µM	
Cc1cc(N/N=C/c2ccco2)c2ccccc2n1		inactive: 3.27%
CCOC(=O)CN1C(=O)/C(=C/c2c(F)cccc2Cl)Oc2ccccc21	inconclusive: 18.4 µM [activator, single point]	
COc1ccc(CCNC(=O)c2ccc(S(=O)(=O)N(C)c3ccccc3)cc2)cc1OC		inactive: 3.88%
O=C(CN1C(=O)C2CCCCC2C1=O)Nc1cccc([N+](=O)[O-])c1 (configuration not stated)	inconclusive: 5.17 µM [activator, partial curve, poor fit]	
O=S(=O)(c1ccccc1)c1nc(Cc2ccccc2)oc1N1CCOCC1	inconclusive: 18.4 µM [activator, single point]	
O=C(CSc1nnc(-c2ccc(F)cc2)o1)Nc1ccc(S(=O)(=O)N2CCCCCC2)cc1	inconclusive: 29.1 µM [activator, partial curve, poor fit]	
COc1ccc(C2CC(c3cccs3)n3nc(N)nc3N2)cc1 (configuration not stated)	inconclusive: 8.2 µM [activator, partial curve, poor fit]	
COc1ccccc1/C=C1\SC(=S)N(Nc2nc(C)cc(C)n2)C1=O		inactive: -1.59%
CNC(=O)c1ccsc1NC(=O)C1CCN(S(=O)(=O)c2ccc(Cl)s2)CC1	inconclusive: 23.1 µM [activator, single point]	
O=C1/C(=C/c2ccccc2)SC(=S)N1C1CCS(=O)(=O)C1 (configuration not stated)		inactive: -8.21%
CC(=O)Nc1cccc(OC(=O)COc2ccc(Br)cc2)c1	active: 29.1 µM	
CCCCOc1ccc(C(O)(CCC)CCN2CCOCC2)cc1 (configuration not stated)		inconclusive: -695% [activator]
